Experimental data taken from publication PMC4358367, “Structural basis of diverse membrane target recognitions by ankyrins” (eLife, 2014).
These are yes or no findings as the source states them, for the method shown. Some results given as binding are weak or reduced against the parent protein; the word gives no strength.

What was measured:
[1] = target: T1, AnkG_repeats (24 ANK repeats of rat 190 kDa ankyrin-G, residues 38–855) (rat) (UniProt O70511); assay: ITC; VP-ITC at 25°C; 50 mM Tris pH 7.5, 100 mM NaCl, 1 mM EDTA, 1 mM DTT; binding partner (AS, Nav1.2 ABD proteins, neurofascin ABD; 200–300 µM) in the syringe, ANK repeats (20–30 µM) in the cell; one-site binding model; both purified
T1 sequence: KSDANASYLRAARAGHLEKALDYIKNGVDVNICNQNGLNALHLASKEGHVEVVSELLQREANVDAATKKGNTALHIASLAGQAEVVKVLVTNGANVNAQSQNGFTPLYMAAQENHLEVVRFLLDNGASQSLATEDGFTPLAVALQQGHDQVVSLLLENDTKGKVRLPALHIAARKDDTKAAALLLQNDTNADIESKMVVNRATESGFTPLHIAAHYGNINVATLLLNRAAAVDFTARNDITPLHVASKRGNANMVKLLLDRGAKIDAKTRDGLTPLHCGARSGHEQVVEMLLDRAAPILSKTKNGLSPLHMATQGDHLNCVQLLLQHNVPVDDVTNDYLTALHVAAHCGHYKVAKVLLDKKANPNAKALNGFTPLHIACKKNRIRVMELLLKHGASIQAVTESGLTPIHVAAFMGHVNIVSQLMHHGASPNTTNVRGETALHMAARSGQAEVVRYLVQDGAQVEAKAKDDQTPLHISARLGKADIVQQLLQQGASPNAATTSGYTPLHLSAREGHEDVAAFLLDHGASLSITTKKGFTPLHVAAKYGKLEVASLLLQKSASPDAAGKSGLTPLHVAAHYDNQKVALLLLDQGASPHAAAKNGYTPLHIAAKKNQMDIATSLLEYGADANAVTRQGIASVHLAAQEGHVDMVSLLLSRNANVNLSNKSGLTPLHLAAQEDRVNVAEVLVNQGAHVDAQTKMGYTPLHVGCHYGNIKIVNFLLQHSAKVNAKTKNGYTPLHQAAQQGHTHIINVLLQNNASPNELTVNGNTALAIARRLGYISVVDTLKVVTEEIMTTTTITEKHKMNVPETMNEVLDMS

[2] = target: T2, AnkR_repeats (24 ANK repeats of ankyrin-R, residues 42–853) (mouse) (UniProt Q02357); assay: as above
T2 sequence: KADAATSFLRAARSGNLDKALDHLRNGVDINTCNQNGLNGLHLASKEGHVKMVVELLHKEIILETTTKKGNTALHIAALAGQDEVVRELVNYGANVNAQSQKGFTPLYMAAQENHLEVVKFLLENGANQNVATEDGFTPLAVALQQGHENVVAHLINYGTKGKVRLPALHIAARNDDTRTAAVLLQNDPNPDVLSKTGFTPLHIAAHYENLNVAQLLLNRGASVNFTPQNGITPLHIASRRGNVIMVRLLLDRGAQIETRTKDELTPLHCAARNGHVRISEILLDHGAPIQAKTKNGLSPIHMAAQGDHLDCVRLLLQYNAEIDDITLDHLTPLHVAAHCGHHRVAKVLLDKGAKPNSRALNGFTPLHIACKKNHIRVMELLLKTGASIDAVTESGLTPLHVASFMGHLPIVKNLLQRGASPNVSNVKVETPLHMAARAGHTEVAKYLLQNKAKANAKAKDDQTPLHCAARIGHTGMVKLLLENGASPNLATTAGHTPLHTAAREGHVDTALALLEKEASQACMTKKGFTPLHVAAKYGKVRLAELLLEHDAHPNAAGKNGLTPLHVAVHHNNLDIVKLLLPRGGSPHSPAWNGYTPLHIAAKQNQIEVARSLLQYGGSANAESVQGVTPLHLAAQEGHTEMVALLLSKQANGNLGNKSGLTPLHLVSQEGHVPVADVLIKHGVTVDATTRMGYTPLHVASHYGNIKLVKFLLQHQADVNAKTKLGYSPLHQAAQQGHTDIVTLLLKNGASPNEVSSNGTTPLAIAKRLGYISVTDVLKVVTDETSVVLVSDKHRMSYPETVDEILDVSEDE

[3] = target: T3, AnkB_repeats (24 ANK repeats of human 220 kDa ankyrin-B, residues 28–873) (human) (UniProt Q01484); assay: 1H-13C HSQC NMR of the 13CH3-Met labeled fusion protein before and after thrombin cleavage; 0.35 mM AnkR_AS-AnkB_repeats fusion, with or without 50 µg/ml thrombin; 50 mM Tris pH 7.0, 100 mM NaCl, 1 mM DTT, 1 mM EDTA; 35°C; both purified
T3 sequence: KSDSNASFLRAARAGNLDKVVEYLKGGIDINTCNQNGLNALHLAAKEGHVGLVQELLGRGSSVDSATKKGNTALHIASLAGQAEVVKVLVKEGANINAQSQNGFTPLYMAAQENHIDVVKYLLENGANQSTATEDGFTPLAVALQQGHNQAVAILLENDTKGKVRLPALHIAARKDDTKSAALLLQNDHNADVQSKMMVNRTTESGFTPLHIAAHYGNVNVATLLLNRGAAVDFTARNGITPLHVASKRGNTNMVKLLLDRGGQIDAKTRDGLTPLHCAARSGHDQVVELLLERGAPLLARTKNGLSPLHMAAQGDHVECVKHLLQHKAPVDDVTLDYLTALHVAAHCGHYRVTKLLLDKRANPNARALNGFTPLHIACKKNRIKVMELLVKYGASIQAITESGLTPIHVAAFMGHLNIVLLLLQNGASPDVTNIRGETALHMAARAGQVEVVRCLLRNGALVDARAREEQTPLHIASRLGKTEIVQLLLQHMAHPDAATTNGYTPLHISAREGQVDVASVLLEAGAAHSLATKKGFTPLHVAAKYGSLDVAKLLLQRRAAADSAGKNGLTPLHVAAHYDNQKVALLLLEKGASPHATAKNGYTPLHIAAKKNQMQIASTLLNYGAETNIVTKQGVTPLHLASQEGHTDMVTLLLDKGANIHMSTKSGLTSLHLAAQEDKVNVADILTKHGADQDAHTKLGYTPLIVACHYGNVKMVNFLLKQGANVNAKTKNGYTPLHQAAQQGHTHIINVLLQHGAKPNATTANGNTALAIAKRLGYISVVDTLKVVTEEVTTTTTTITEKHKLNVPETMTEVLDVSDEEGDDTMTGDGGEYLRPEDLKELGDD

[4] = target: T3, AnkB_repeats (24 ANK repeats of human 220 kDa ankyrin-B, residues 28–873) (human); assay: crystal structure; AnkR_AS fused at its C-terminus with AnkB_repeats on one chain (thrombin-site linker); Se-Met derivative refined at 3.5 Å; 0.5 M ammonium sulfate, 1.0 M lithium sulfate, 0.1 M sodium citrate pH 5.6, 16°C; both purified

Measured: binding

B1: AnkR_AS (48-residue auto-inhibitory segment of AnkR, residues 1577–1624) (domain or fragment, mouse, UniProt Q02357-6 1577-1624, looked up)
chain: CADQYWNEVTVIDAIPLAATEHDTMLEMSDMQVWSAGLTPSLVTAEDS
notes: Free AS in ITC; source: E. coli BL21 (DE3), purified
binds: all assays above
